Measurements reported in PubChem BioAssay AID652243 (Drosophila RNAi Screening Center, 2013).

Aim: 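Fly genes required for human androgen receptor driven transcription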 (primary screen)
Cell system: Drosophila S2R+ cells
Reagents: long dsRNA against Drosophila genes
Time to read-out: 72 h (48 h, then 24 h hormone)
Challenge: synthetic androgen R1881 at 10 nM for 24 h
Detection: 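Firefly light from an androgen-responsive reporter and Renilla control light per well, raw and unnormalised, for each of two replicates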
Reading the numbers: firefly reporter light: higher = more light from androgen-responsive reporter; Renilla control light: higher = more constitutive control signal (cell number, transfection)
Active means: 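Across duplicate plates, a knock-down whose log firefly/Renilla ratio shifted a set fold down or up from the GFP/LacZ control mean was a hit; the downward cut appears as both 1.5 and 3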
Meaning of the calls: active = hit: reporter lowered or raised; inactive = no hit
In all, the deposit lists about 24,000 reagents; this is a random part of those that have a named target and a result. Over the whole deposit, 246 (1%) got an active call. 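Plates not normalised; calls are printed but the firefly/Renilla ratio behind them is not deposited; fold cut for lowering reported inconsistently.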 The raw values are shown without normalisation. Reagent sequences are not shown. Not given: the amount of reagent.

With knock-down of sim [DRSC17054], the record shows firefly reporter light, replicate 1 = 54165; firefly reporter light, replicate 2 = 52580; Renilla control light, replicate 1 = 9.69e5; Renilla control light, replicate 2 = 1.12e6; inactive.
Against sim [DRSC28753], the entry reads firefly reporter light, replicate 1 = 3.66e5; firefly reporter light, replicate 2 = 4.47e5; Renilla control light, replicate 1 = 8.14e5; Renilla control light, replicate 2 = 7.54e5; inactive.
After knock-down of CG34450 [DRSC17822] the results were firefly reporter light, replicate 1 = 1.08e5; firefly reporter light, replicate 2 = 1.03e5; Renilla control light, replicate 1 = 1.08e6; Renilla control light, replicate 2 = 8.31e5; inactive.
CG34450 [DRSC25085] gave firefly reporter light, replicate 1 = 6.67e5; firefly reporter light, replicate 2 = 9.23e5; Renilla control light, replicate 1 = 8.95e5; Renilla control light, replicate 2 = 1.02e6; inactive.
Against Drsl1 [DRSC22490] the deposit lists firefly reporter light, replicate 1 = 5.09e5; firefly reporter light, replicate 2 = 9.81e5; Renilla control light, replicate 1 = 7.59e5; Renilla control light, replicate 2 = 9.36e5; inactive.
Depletion of CG13640 [DRSC14639] gave: firefly reporter light, replicate 1 = 1.58e5; firefly reporter light, replicate 2 = 1.79e5; Renilla control light, replicate 1 = 1.37e6; Renilla control light, replicate 2 = 1.20e6; inactive.
For CG34345 [DRSC02126], the values are firefly reporter light, replicate 1 = 1.56e5; firefly reporter light, replicate 2 = 2.09e5; Renilla control light, replicate 1 = 1.63e6; Renilla control light, replicate 2 = 1.12e6; inactive.
CG34345 [DRSC37753] showed firefly reporter light, replicate 1 = 6.19e5; firefly reporter light, replicate 2 = 4.71e5; Renilla control light, replicate 1 = 1.65e6; Renilla control light, replicate 2 = 1.11e6; inactive.
After knock-down of CG30148 [DRSC06391] the results were firefly reporter light, replicate 1 = 4.23e5; firefly reporter light, replicate 2 = 4.93e5; Renilla control light, replicate 1 = 2.63e6; Renilla control light, replicate 2 = 3.38e6; inactive.
Fancl [DRSC14550] showed firefly reporter light, replicate 1 = 79320; firefly reporter light, replicate 2 = 1.23e5; Renilla control light, replicate 1 = 1.49e6; Renilla control light, replicate 2 = 1.59e6; inactive.
After knock-down of cac [DRSC19743], the screen gave firefly reporter light, replicate 1 = 6.71e5; firefly reporter light, replicate 2 = 7.48e5; Renilla control light, replicate 1 = 4.20e6; Renilla control light, replicate 2 = 4.47e6; inactive.
Depletion of cac [DRSC20354] came out at: firefly reporter light, replicate 1 = 80883; firefly reporter light, replicate 2 = 1.01e5; Renilla control light, replicate 1 = 6.74e5; Renilla control light, replicate 2 = 6.27e5; inactive.
For cac [DRSC39146], the values are firefly reporter light, replicate 1 = 1.03e6; firefly reporter light, replicate 2 = 1.27e6; Renilla control light, replicate 1 = 1.39e6; Renilla control light, replicate 2 = 1.65e6; inactive.
After knock-down of CG7755 [DRSC07040], the record shows firefly reporter light, replicate 1 = 1.26e5; firefly reporter light, replicate 2 = 1.10e5; Renilla control light, replicate 1 = 2.52e6; Renilla control light, replicate 2 = 2.52e6; inactive.
Against l(2)k01209 [DRSC06889] the deposit lists firefly reporter light, replicate 1 = 52834; firefly reporter light, replicate 2 = 93742; Renilla control light, replicate 1 = 1.03e6; Renilla control light, replicate 2 = 1.03e6; inactive.
Against l(2)k01209 [DRSC29673] the deposit lists firefly reporter light, replicate 1 = 8.31e5; firefly reporter light, replicate 2 = 1.06e6; Renilla control light, replicate 1 = 4.88e5; Renilla control light, replicate 2 = 4.88e5; active.
l(2)k01209 [DRSC37059] gave inactive.
For Dus4 [DRSC02066], the entry reads firefly reporter light, replicate 1 = 1.06e6; firefly reporter light, replicate 2 = 7.88e5; Renilla control light, replicate 1 = 1.66e6; Renilla control light, replicate 2 = 1.42e6; inactive.
After knock-down of TfIIEalpha [DRSC11303], the record shows firefly reporter light, replicate 1 = 1.25e6; firefly reporter light, replicate 2 = 1.20e6; Renilla control light, replicate 1 = 2.03e6; Renilla control light, replicate 2 = 2.16e6; inactive.
For TfIIEalpha [DRSC27748], the values are firefly reporter light, replicate 1 = 3.19e5; firefly reporter light, replicate 2 = 3.01e5; Renilla control light, replicate 1 = 7.48e5; Renilla control light, replicate 2 = 8.65e5; inactive.
CG17109 [DRSC15172] scored firefly reporter light, replicate 1 = 1.98e5; firefly reporter light, replicate 2 = 2.58e5; Renilla control light, replicate 1 = 3.01e6; Renilla control light, replicate 2 = 3.39e6; inactive.
Depletion of CG17109 [DRSC26637] resulted in: firefly reporter light, replicate 1 = 3.20e5; firefly reporter light, replicate 2 = 3.24e5; Renilla control light, replicate 1 = 3.81e5; Renilla control light, replicate 2 = 5.32e5; inactive.
With knock-down of CG34231 [DRSC38876], the record shows firefly reporter light, replicate 1 = 1.38e6; firefly reporter light, replicate 2 = 7.16e5; Renilla control light, replicate 1 = 2.07e6; Renilla control light, replicate 2 = 1.57e6; inactive.
Silencing of CG7168 [DRSC16208] gave: firefly reporter light, replicate 1 = 1.41e5; firefly reporter light, replicate 2 = 82228; Renilla control light, replicate 1 = 5.93e5; Renilla control light, replicate 2 = 5.42e5; inactive.
With knock-down of Acyp2 [DRSC15336], the record shows firefly reporter light, replicate 1 = 1.73e5; firefly reporter light, replicate 2 = 2.13e5; Renilla control light, replicate 1 = 2.13e6; Renilla control light, replicate 2 = 2.79e6; inactive.
Knock-down of Ndg [DRSC06223] gave: firefly reporter light, replicate 1 = 1.23e6; firefly reporter light, replicate 2 = 1.30e6; Renilla control light, replicate 1 = 1.77e6; Renilla control light, replicate 2 = 1.90e6; inactive.
For Ndg [DRSC28402], the entry reads firefly reporter light, replicate 1 = 5.95e5; firefly reporter light, replicate 2 = 7.43e5; Renilla control light, replicate 1 = 8.14e5; Renilla control light, replicate 2 = 7.16e5; inactive.

Reprinted from the listing, 4 entries:
cac [DRSC20354] → firefly reporter light, replicate 1: 80883; firefly reporter light, replicate 2: 1.01e5; Renilla control light, replicate 1: 6.74e5; Renilla control light, replicate 2: 6.27e5; outcome: inactive
cac [DRSC39146] → firefly reporter light, replicate 1: 1.03e6; firefly reporter light, replicate 2: 1.27e6; Renilla control light, replicate 1: 1.39e6; Renilla control light, replicate 2: 1.65e6; outcome: inactive
CG7755 [DRSC07040] → firefly reporter light, replicate 1: 1.26e5; firefly reporter light, replicate 2: 1.10e5; Renilla control light, replicate 1: 2.52e6; Renilla control light, replicate 2: 2.52e6; outcome: inactive
l(2)k01209 [DRSC06889] → firefly reporter light, replicate 1: 52834; firefly reporter light, replicate 2: 93742; Renilla control light, replicate 1: 1.03e6; Renilla control light, replicate 2: 1.03e6; outcome: inactive
